# Data as given in PubChem BioAssay AID1259424 (University of Nebraska Medical Center, 2018)
# Screen: 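Seek colon cancer survival genes behaving like KSR1, using a six-gene signature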 (primary screen)
# Cell system: human HCT116 colon cancer cells
# Knock-down reagent: siRNA pool against human genes, 50 nM
# Read-out: 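Six signature mRNAs by branched-DNA multiplex assay, scaled to two housekeeping genes and non-targeting median, log2; matched to mean KSR1 knockdown profile by Pearson correlation and euclidean distance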
# Direction: mean correlation with KSR1 profile: higher = expression change more like KSR1 knockdown
# This is one part, drawn at random, of about 14,000 reagents tested. 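Higher correlation or smaller distance means closer resemblance to KSR1 loss; control wells, including KSR1 knockdowns, recur on many plates.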 The numbers tell different reagents against one gene apart. Not all columns of the deposit are shown. Not given: the time to read-out.
Target gene,reagent no.,mean correlation with KSR1 profile
DYNC1LI1,1,0.287
FOS,1,0.88
MAFF,1,0.766
CHP2,1,0.495
ZNF624,1,-0.0255
RAMP1,1,0.317
DTYMK,1,0.262
TNFRSF10C,1,-0.151
TMOD1,1,-0.0509
PLEKHO1,1,-0.202
DDT,1,-0.195
IFT140,1,0.254
FASTKD3,1,-0.779
PKD2L1,1,-0.278
LHX6,1,0.435
CAMSAP2,1,-0.585
STX2,1,0.478
ADCY3,1,-0.398
PIAS1,1,0.00593
HMGA2,1,-0.029
EIF4EBP3,1,0.59
AAGAB,1,0.569
CYP1A1,1,-0.691
RABGAP1L,1,-0.183
ZIC5,1,0.256
HIBADH,1,-0.085
SPO11,1,0.389
ANGPT4,1,-0.0656
DBI,1,-0.272
PSEN1,1,0.43
RSRC1,1,-0.0844
TMEM101,1,0.664
RPS14,1,-0.465
TWF1,1,0.417
VPS51,1,-0.143
TET2,1,-0.689
TET2,2,-0.325
PRAF2,1,0.351
LAPTM4B,1,-0.106
TNFSF12,1,0.666
DBF4,1,-0.0826
KIR2DS3,1,-0.185
OTX1,1,0.85
C1QA,1,0.335
CHPF2,1,-0.784
YBEY,1,-0.491
CCDC134,1,0.0534
NLGN1,1,-0.437
WBP1L,1,-0.347
TNS2,1,-0.519

In a second layout: results already given.
VPS51
- mean correlation with KSR1 profile: -0.143

TET2 #1
- mean correlation with KSR1 profile: -0.689

TET2 #2
- mean correlation with KSR1 profile: -0.325

PRAF2
- mean correlation with KSR1 profile: 0.351

LAPTM4B
- mean correlation with KSR1 profile: -0.106
